Biological target: T1, Robo4 cytoplasmic tail-HA (UniProt Q8C310 494-1012, limits assumed)
T1 construct: domain: cytoplasmic tail; Expressed in HEK 293 cells for co-immunoprecipitation; also called Robo4 tail
T1 sequence (looked up): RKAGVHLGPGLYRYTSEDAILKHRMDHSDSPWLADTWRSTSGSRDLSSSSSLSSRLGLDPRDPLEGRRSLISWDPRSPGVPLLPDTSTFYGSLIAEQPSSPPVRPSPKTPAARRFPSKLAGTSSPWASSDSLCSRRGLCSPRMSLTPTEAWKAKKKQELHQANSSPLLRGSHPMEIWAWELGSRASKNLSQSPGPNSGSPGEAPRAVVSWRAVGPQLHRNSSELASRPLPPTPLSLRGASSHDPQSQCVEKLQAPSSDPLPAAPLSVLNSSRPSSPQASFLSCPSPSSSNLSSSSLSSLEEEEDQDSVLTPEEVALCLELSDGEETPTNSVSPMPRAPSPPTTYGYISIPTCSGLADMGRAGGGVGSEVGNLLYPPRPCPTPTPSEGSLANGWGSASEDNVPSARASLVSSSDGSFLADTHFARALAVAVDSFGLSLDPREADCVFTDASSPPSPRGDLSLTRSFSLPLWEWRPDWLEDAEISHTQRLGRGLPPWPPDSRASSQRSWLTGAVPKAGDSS
Experiment: co-immunoprecipitation (anti-HA IP, anti-V5 blot), HEK 293 cells

binding result: no binding
B1: paxillin-LD (other, murine, UniProt Q8VI36 1-355, looked up, not shown: small tags and cut ends)
chain: MDDLDALLADLESTTSHISKRPVFLSEEPPYSYPTGNHTYQEIAVPPPVPPPPSSEALNGTVLDPLDQWQPSGSRYAHQQPPSPLPVYSSSAKNSSASNTQDGVGSLCSRAGEEEHVYSFPNKQKSAEPSPTVMSSSLGSNLSELDRLLLELNAVQHSPPGFPADEAESSPPLPGALSPLYGIPENNTPLGGKAGPLVKEKPKRNGGRGLEDVRPSVESLLDELESSVPSPVPAITVNQGEMSSPQRVTSSQQQTRISASSATRELDELMASLSDFKMQGLEQRVDGERPWAAGWPPSSRQSSPEGQDEGGFMAQGKTGSSSPPGGLSKPGSQLDSMLGSLQSDLNKLGVATVAK
notes: domain: LD repeats

Reference: US20100222401A1 (UNIVERSITY OF UTAH RESEARCH FOUNDATION, published 2010)
